Data on two molecules can be found in publication doi:10.1101/2024.10.30.620894 (bioRxiv, 2024).

Experiment [1] deals with wild-type clusterin (WT-Clu) (human) (UniProt P10909). Description: flotation in an Optiprep density gradient.
In experiment [2] the target is T1, denatured rhodanese (D-Rho) (UniProt P00586).
T1 sequence: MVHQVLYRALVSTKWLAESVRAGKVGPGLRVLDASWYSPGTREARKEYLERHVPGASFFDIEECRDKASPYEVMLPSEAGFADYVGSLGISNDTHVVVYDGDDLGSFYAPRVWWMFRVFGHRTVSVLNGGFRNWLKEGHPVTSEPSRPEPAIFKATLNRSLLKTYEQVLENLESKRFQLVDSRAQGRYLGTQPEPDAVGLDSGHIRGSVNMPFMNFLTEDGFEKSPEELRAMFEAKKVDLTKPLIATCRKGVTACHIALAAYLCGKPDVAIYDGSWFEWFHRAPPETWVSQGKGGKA
Description: SEC. (In general: Size exclusion chromatography separates by hydrodynamic size, large species first.)

For experiment [3], the target named is wild-type clusterin (WT-Clu) (human) (UniProt P10909). Description: SEC.

Results are given in words; binding and its absence hold for the method and conditions named. Some entries that bind do so weakly or less than the wild type.

B1: denatured rhodanese (D-Rho) (enzyme, UniProt P00586 1-297)
chain: MVHQVLYRALVSTKWLAESVRAGKVGPGLRVLDASWYSPGTREARKEYLERHVPGASFFDIEECRDKASPYEVMLPSEAGFADYVGSLGISNDTHVVVYDGDDLGSFYAPRVWWMFRVFGHRTVSVLNGGFRNWLKEGHPVTSEPSRPEPAIFKATLNRSLLKTYEQVLENLESKRFQLVDSRAQGRYLGTQPEPDAVGLDSGHIRGSVNMPFMNFLTEDGFEKSPEELRAMFEAKKVDLTKPLIATCRKGVTACHIALAAYLCGKPDVAIYDGSWFEWFHRAPPETWVSQGKGGKA
In the case of B1, the binding entry in experiment [1] was “binds”.

B2: wild-type clusterin (WT-Clu) (natural protein, human)
chain 1: DQTVSDNELQEMSNQGSKYVNKEIQNAVNGVKQIKTLIEKTNEERKTLLSNLEEAKKKKEDALNETRESETKLKELPGVCNETMMALWEECKPCLKQTCMKFYARVCRSGSGLVGRQLEEFLNQSSPFYFWMNGDRIDSLLENDRQQTHMLDVMQDHFSRASSIIDELFQDRFFTREPQDTYHYLPFSLPHRRPHFFFPKSRIVR
chain 2: SLMPFSPYEPLNFHAMFQPFLEMIHEAQQAMDIHFHSPAFQHPPTEFIREGDDDRTVCREIRHNSTGCLRMKDQCDKCREILSVDCSTNNPSQAKLRRELDESLQVAERLTRKYNELLKSYQWKMLNTSSLLEQLNEQFNWVSRLANLTQGEDQYYLRVTTVASHTSDSDVPSGVTEVVVKLFDSDPITVTVPVEVSRKNPKFMETVAEKALQEYRKKHREE
modifications: N-glycans (six in the whole protein) | N-glycans (six in the whole protein)
Consider B2, for which the binding result is on record as “binds” in experiment [2] and “no binding (condition: at pH 5 (10 μM))” in experiment [3].
